# Experimental data: article PMC5425256
# Amino acid sequences for entries named in this document (tags omitted). A change or cut given only in a name is not applied to a line headed by its entry.
# UniProt Q8C6B2: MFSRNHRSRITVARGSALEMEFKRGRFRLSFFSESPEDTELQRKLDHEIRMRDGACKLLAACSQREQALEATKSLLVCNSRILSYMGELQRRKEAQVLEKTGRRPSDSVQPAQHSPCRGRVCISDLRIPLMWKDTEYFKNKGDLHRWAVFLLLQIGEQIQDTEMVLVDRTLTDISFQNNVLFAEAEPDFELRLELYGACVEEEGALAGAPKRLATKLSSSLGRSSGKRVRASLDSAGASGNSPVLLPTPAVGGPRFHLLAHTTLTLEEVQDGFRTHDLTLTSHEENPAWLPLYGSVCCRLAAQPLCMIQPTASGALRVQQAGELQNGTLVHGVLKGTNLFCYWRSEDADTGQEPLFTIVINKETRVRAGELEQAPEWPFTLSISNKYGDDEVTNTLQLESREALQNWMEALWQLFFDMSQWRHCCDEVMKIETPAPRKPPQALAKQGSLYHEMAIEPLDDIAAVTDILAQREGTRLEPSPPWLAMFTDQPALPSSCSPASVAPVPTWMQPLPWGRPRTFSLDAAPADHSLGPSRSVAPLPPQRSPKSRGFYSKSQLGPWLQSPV
# UniProt P61586: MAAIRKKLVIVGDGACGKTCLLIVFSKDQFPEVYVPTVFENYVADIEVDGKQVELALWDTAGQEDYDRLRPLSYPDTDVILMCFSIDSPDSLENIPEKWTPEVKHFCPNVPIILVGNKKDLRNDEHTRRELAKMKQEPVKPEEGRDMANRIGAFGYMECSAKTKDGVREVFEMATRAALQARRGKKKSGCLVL
# UniProt P08134: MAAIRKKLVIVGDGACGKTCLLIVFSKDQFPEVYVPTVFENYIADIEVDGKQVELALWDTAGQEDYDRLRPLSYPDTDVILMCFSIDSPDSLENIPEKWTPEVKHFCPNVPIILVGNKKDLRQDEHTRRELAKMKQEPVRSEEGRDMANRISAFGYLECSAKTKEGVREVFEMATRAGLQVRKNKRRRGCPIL
# Results are given in words; binding and its absence hold for the method and conditions named. In cells and extracts the contact can be indirect. Binding calls can cover weak binding; strength is not graded here.
# Biological target: GST-Rhotekin (residues 7-89) (UniProt Q8C6B2)
# Assay: pull-down; only the target purified
row,binding,Substance
1,binds,RhoA from HeLa cell lysates (from UniProt P61586 1-193)
2,binds,RhoC from HeLa cell lysates (from UniProt P08134 1-193)
